# Experimental data as given in PubChem BioAssay AID2417 (National Center for Advancing Translational Sciences (NCATS), 2010).
# Among all 140,000 compounds or so, about 4,300 (3.1%) were called active. This list was built around the results that the source calls inconclusive (neither active nor inactive); the mix of calls is not that of the screen.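 Rule for the calls: active = readout at or below -70, meaning at least 70% loss of cells showing the perinucleolar compartment, a nuclear body marking cancer cells; inconclusive = readout between -30 and a set limit; inactive = the rest.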
# Assay: High Content Assay for Compounds that inhibit the Assembly of the Perinucleolar Compartment;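 note: plate controls were DMSO wells for no effect and camptothecin positive control wells for full effect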
# Details: PC3M PTB-GFP, PNC prevalence imaging, 16 h; at 10 µM; stronger effect = lower value
# Outline: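 Read-out is percentage of cells bearing a perinucleolar compartment, from automated 20x imaging of fixed, Hoechst-stained PC3M PTB-GFP cells. Cells were seeded 4 h, then exposed 16 h to compound (23 nl of library stock) in duplicate plates.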
row,SMILES,"activity change (PNC), negative = inhibition"
1,CC(C)CNS(=O)(=O)c1ccccc1C(=O)N1CCCCC1,inconclusive: -42%
2,O=C(N1CCN(c2ccccn2)CC1)N1c2ccccc2Sc2ccccc21,active: -84%
3,CCC(=O)NCCn1c(C)cc2ccccc21,inactive: 41.7%
4,Cc1c(NC(=O)c2c(NC(=O)CNC3CC3)sc3c2CCCC3)c(=O)n(-c2ccccc2)n1C,inconclusive: -49.9%
5,CCOC(=O)c1cc(-c2ccccc2)n(CCC(=O)O)c1C,inactive: -14.4%
6,C=CCOc1c(CNc2ncn[nH]2)cccc1OCC,inconclusive: -34.1%
7,ClC(Br)=C(n1cnc2ccccc21)n1cnc2ccccc21,inconclusive: -63%
8,Cc1ccc(NC(=O)Cc2nn(C)c(=O)c3ccccc23)cc1F,inactive: 22.5%
9,Cc1ccc(N2C(=O)C3CC(c4ccccc4)=C4C5C=CC(C6C(=O)N(c7ccc(C)cc7)C(=O)C56)C4C3C2=O)cc1 (stereo unspecified),inconclusive: -48.5%
10,O=C(CN1CCOCC1)N1CCc2ccccc2C(c2ccccc2)C1 (stereo unspecified),inactive: 24.2%
11,Cc1ccc(C)c(N2CCN(C(=O)CCn3c(=S)[nH]c4cc5c(cc4c3=O)OCO5)CC2)c1,inactive: 0.963%
12,CCC(Oc1ccccc1)C(=O)NCCOC (stereo unspecified),inconclusive: -30.3%
13,Cc1cc(NS(=O)(=O)c2ccc(N3C(=O)C4C5C=CC(C5)C4C3=O)cc2)nc(C)n1 (stereo unspecified),inconclusive: -75.5%
14,COc1ccccc1NC(=O)Cn1cnc2sc(C(=O)NCc3ccco3)c(C)c2c1=O,inactive: 17.3%
15,CCOC(=O)c1sc(NC(=O)c2cc3c(C)nn(-c4ccccc4)c3s2)nc1C,inconclusive: -57.7%
16,CN(C)c1ccc(NC(=O)Oc2ccccc2)cc1,inactive: 31.1%
17,COC(=O)c1ccc(CSc2nnc(NC(=O)c3cc4c(s3)CCCC4)s2)cc1,inconclusive: -56.8%
18,O=C(N/N=C/c1ccc(Cl)cc1Cl)C1CCN(c2ncc(C(F)(F)F)cc2Cl)CC1,inactive: 97%
19,Cc1ccc2oc3c(c(=O)c2c1)C(c1cccs1)N(CCCN(C)C)C3=O (stereo unspecified),inconclusive: -66.8%
20,Cc1c(C=NCCOCc2ccccc2)cnn1C,inconclusive: -49.2%
21,COC(=O)c1ccc(OCc2nc(N)nc(N3CCOCC3)n2)cc1,inconclusive: -49.1%
22,CCOC(=O)/C=c1\s/c(=C(\C#N)C(=O)NC)n(-c2ccccc2)c1=O,inconclusive: -54.1%
23,C/C(CC(=O)Nc1ccccc1-c1ccccc1)=N\NC(=O)COc1ccc(C)cc1Br,inactive: 1.66%

row,SMILES,"activity change (PNC), negative = inhibition"
1,C(=N\n1cncn1)/c1ccc(N2CCOCC2)cc1,inconclusive: -56%
2,CC(=O)Nc1ccc(C(=O)N(C)C(C(=O)Nc2ccccc2)c2ccccn2)cc1 (stereo unspecified),inactive: -15.9%
3,Cc1c(Nc2cc(=O)oc3ccccc23)c(=O)n(-c2ccccc2)n1C,inconclusive: -75.7%
4,Fc1ccc(C(c2nnnn2C2CCCC2)N2CCc3ccccc32)cc1 (stereo unspecified),inactive: -22.9%
5,CCOc1ccc(NC(=O)C2C3C=CC4(CN(C(C(=O)OC)C(C)C)C(=O)C24)O3)cc1 (stereo unspecified),inconclusive: -53.9%
6,O=C(CCNS(=O)(=O)c1cccs1)NCc1ccco1,inactive: 6.2%
7,CCOC(=O)/C(C#N)=C/c1ccc(OC)c(OC)c1,inactive: -10.4%
8,CC(C)C1N=C2c3ccccc3N=C(SCC(=O)NCCc3ccc(S(N)(=O)=O)cc3)N2C1=O (stereo unspecified),inconclusive: -76.6%
9,Cc1nc2ccc(-c3nc4cc(N)ccc4o3)cc2[nH]1,inactive: 8.88%
10,Cc1ccc(N)c(C(O)(C(F)(F)F)C(F)(F)F)c1,inconclusive: -34.4%
11,COCCNC(=O)CN(C(=O)CCC(=O)Nc1cc(C)on1)c1cccc(C)c1C,inconclusive: -55.7%
12,CCC(CC)NC(=O)c1ccc2c(c1)OCCO2,inconclusive: -53.5%
13,Cc1cccnc1NC(=O)Cn1nc(-c2ccccc2)oc1=S,inconclusive: -39.3%
14,Cc1cc(C)c(C(=O)CSc2nnc(-c3cccnc3)n2C)c(C)c1,inconclusive: -52.3%
15,COc1ccc(-n2c(=O)cc(N3CCN(c4ccccc4)CC3)[nH]c2=O)cc1,inconclusive: -67.6%
16,CCOc1ccccc1NC(=O)CSc1nc2cccnc2n1C,inconclusive: -34.2%
17,O=C(N/N=C/c1cccc(O)c1)c1ccc(COc2ccccc2Br)cc1,active: -124%
18,CC(C)(C)c1cc(CN2CCCCC2)cc(C(C)(C)C)c1O,inactive: -22.9%
19,O=C(COC(=O)Cn1cnc2ccccc21)NCCC1=CCCCC1,inconclusive: -33.5%
20,CCN(CC)CCn1c(=S)[nH]c2cc(Cl)ccc2c1=O,inconclusive: -41.2%
21,Cc1nc(SCn2nnc3ccccc3c2=O)nc(C)c1C,inconclusive: -74.2%
22,CC1(C)NC(=O)N(CNc2cc(Cl)ccc2Cl)C1=O,inactive: 29.3%
23,O=C(c1ccc(COc2ccc(Br)cc2)o1)N1N=C(C(F)F)CC1(O)C(F)F (stereo unspecified),inconclusive: -75.8%

# Pulled one by one from the entries so far:
row,SMILES,"activity change (PNC), negative = inhibition"
15,CCOC(=O)c1sc(NC(=O)c2cc3c(C)nn(-c4ccccc4)c3s2)nc1C,inconclusive: -57.7%
1,C(=N\n1cncn1)/c1ccc(N2CCOCC2)cc1,inconclusive: -56%

# Later entries:

row,SMILES,"activity change (PNC), negative = inhibition"
1,Cc1cc(/C=C(/C#N)c2nc3ccccc3[nH]2)c(C)n1-c1cccc([N+](=O)[O-])c1,inactive: 20%
2,CNC(=S)N(Cc1ccc(OC)cc1)C1CC(=O)N(c2ccc(Cl)cc2)C1=O (stereo unspecified),inactive: 54%
3,O=C1C2=C(c3ccccc31)[N+](=O)C1CCCCC1N2[O-] (stereo unspecified),inconclusive: -35.4%
4,O=C(c1cc2n(n1)C(C(F)(F)F)CC(c1ccc(Cl)cc1)N2)N1CCCC1 (stereo unspecified),inconclusive: -59.1%
5,CCOC(=O)c1c(NC(=O)Cn2nc(C(F)F)cc2C(F)F)sc(C)c1C,inactive: 37.5%
6,Cc1ccc(Cn2c(SCCN3CCOCC3)nc3c2c(=O)n(C)c(=O)n3C)cc1,active: -80.6%
7,O=C(c1ccco1)N(Cc1ccco1)c1ccc(O)cc1,active: -95.9%
8,COCCCNC(=O)c1cccn2c(=O)c3cc4ccccc4cc3nc12,inconclusive: -44%
9,CCn1nccc1C(=O)NC1=C(C#N)CCC1,inconclusive: -43.1%
10,CC12CS(=O)(=O)CC1SC(=S)N2c1ccccn1 (stereo unspecified),inconclusive: -41%
11,CC(=O)Cc1ccccc1OCC(=O)O,inconclusive: -44.4%
12,Cc1ccc(C)c(-n2[nH]c3c4c(ccc3c2=O)C(=O)c2ccccc2C4=O)c1,inconclusive: -35.9%
13,Nc1nnc(SCC(=O)OCc2ccc(F)cc2)s1,inconclusive: -33.7%
14,O=C(NNc1c2ccccc2nc2ccccc12)c1ccccc1O,inactive: 5.74%
15,Cc1nnc(N2CCc3ccccc3C2)[nH]c1=O,inactive: 17.1%
16,CCc1nn(C(C)C(=O)NC(C)CCc2ccco2)c(=O)c2cc3occc3n12 (stereo unspecified),inconclusive: -52%
17,CCCNC(=O)COC(=O)c1ccc(Cl)c(S(=O)(=O)N2CCCC2)c1,inactive: 15.2%
18,CCN(CC)c1ccc(/C=C(/C#N)C(=O)NCc2ccccc2)o1,active: -90.2%
19,CCc1cccc2c(SCC(=O)NCC3CCCO3)nc(-c3ccc(F)cc3)nc12 (stereo unspecified),inconclusive: -48%
20,CC(C)(C)C1=Nn2c(nnc2C2CCCCC2)SC1,inactive: -12.4%
21,CCc1ccc(C(=O)COC(=O)c2ccc(-c3nnc(-c4ccccc4)o3)cc2)cc1,inactive: 81.2%
22,COC(=O)CCCCCc1ccc(C(C)=O)s1,inconclusive: -40.7%
23,COc1cc(OC)cc(C(=O)Nc2ccc(S(=O)(=O)Nc3cc(C)on3)cc2)c1,inactive: -25.6%

row,SMILES,"activity change (PNC), negative = inhibition"
1,CCOc1ccc(-n2nc(C(=O)NCCOC)c3ccccc3c2=O)cc1,inactive: 3.68%
2,CCCn1cnc2c(c1=O)c1nc3ccccc3nc1n2Cc1ccccc1OC,inconclusive: -40.8%
3,COc1cc(C2NC(=O)NC(C)=C2C(=O)OC2CCCCC2)cc(Br)c1O (stereo unspecified),inconclusive: -52%
4,C#CCn1c(=NC(=O)c2ccc(S(=O)(=O)N3CCCc4ccccc43)cc2)sc2cc(S(N)(=O)=O)ccc21,inactive: 55.3%
5,O=C(Nc1ccc([N+](=O)[O-])cn1)c1ccc(Br)o1,inconclusive: -51.3%
6,CCOc1ccccc1N1CCN(S(=O)(=O)c2cccc3nsnc23)CC1,inconclusive: -41.5%
7,COC(=O)C1=C(C)N(C)C(=O)NC1c1ccc(C)cc1 (stereo unspecified),inconclusive: -37.6%
8,CCOc1ccccc1C(=O)Nc1nnc(CC)s1,inactive: 1.12%
9,CC(=O)c1ccc(NC(=O)CSc2nnc(-c3ccoc3C)n2Cc2ccccc2)cc1,inconclusive: -58.8%
10,Cc1ccc2nc(NC(=O)COC(=O)c3ccc(Br)o3)sc2c1,inconclusive: -33%
11,CCOC(=O)N1CCC(NC(=O)CCC(=O)N2CCOc3ccc(C)cc32)CC1,inconclusive: -56.5%
12,O=C1CC(N2CCCCCC2)C(=O)N1c1ccc2c(c1)OCO2 (stereo unspecified),inactive: 36.3%
13,CCOC(=O)c1ccc[n+](CC(=O)c2ccccc2)c1,inactive: -0.155%
14,Cc1cc(C)n2nc(SCc3nnc(SCc4ccccc4C)s3)nc2n1,inconclusive: -46.1%
15,CCc1nnc(SCC(=O)NC2CCCCC2)nc1CC,inactive: 6.09%
16,COc1ccc(N2C(=O)CC(NCc3cccs3)C2=O)cc1 (stereo unspecified),inconclusive: -34.8%
17,CC(=O)Nc1ccc(NC(=O)c2sc3nc4c(c(-c5ccc(C)cc5)c3c2N)CCC4)cc1,inactive: 14%
18,Cc1ccc(CNC(=O)CCOc2ccc(C(C)(C)C)cc2)cc1,inactive: -25.5%
19,CN1CCN(c2nc(-c3ccc(Br)cc3)nnc2-c2ccccc2)CC1,inactive: 9.85%
20,CN1CCN(Cc2nc3c(c(=O)[nH]c(=O)n3C)n2CCc2ccccc2)CC1,inactive: 5.35%
21,COc1ccc(C)c2sc(=NC(=O)c3ccccc3)n(C)c12,inactive: -9.44%
22,Fc1ccccc1CSc1nc2ccccc2[nH]1,inconclusive: -69.8%

# Some values from above:
# activity change (PNC), negative = inhibition with `COC(=O)C1=C(C)N(C)C(=O)NC1c1ccc(C)cc1` (stereo unspecified) reads inconclusive: -37.6%
# activity change (PNC), negative = inhibition with `CCc1nnc(SCC(=O)NC2CCCCC2)nc1CC` reads inactive: 6.09%
